Measured values published in paper doi:10.1101/2022.12.14.520423.
Where a protein sequence is shown, tags need not be part of it.

molecular target: T1, CLAMP (CLAMPmel) (Drosophila melanogaster) (UniProt Q9V9N4); test: EMSA; conditions: recombinant protein; residues 1-561; label: biotin
T1 sequence (looked up): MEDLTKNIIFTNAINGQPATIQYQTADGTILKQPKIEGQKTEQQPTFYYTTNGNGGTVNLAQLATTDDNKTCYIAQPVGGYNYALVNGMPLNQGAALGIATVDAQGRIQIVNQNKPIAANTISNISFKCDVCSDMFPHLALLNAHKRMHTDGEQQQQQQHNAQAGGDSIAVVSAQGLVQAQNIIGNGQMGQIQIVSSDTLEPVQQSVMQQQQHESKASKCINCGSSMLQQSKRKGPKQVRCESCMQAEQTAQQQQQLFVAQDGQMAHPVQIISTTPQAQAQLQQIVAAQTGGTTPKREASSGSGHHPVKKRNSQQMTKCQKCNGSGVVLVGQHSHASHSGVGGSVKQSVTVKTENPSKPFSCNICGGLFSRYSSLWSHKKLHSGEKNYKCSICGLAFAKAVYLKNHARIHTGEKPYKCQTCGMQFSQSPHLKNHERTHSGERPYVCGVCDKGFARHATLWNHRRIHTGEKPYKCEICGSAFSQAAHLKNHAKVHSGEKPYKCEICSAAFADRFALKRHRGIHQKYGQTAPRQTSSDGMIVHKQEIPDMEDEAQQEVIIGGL

Binding result, binds:
CACCACGAATGTCACTGAGGTACTAATGCTAGCTCTTCGGGCAGCGCTTATATTTATACCAAAAACTCAAAAAGACTGAAAACATATTTCCATACATACTACCCTTGTAACATATTCGACAAAACAGCGAACAGCGAATATATCGTTCTCTTTCTAACTTATCACTCATTTTCTATATAAGCGATACACAAACGAGACGCACGATTATTGTGTTTTTAACA (double strand) [Dvir GAΔ H3/H4 promoter], CACCACGAATGTCACTGAGGTACTAATGCTAGCTCTTCGGGCAGCGCTTATATTTATACCAAAAACCAAAAAGACGAGCGAGTGAAAACATATTTCCATCTCGCTCACATACTACCCTTGTAACATATTCGACAAAACAGCGAACAGCGAATATATCGTTCTCTTTCTAACTTATCACTCATTTTCTATATAAGCGATACACAAACGAGACGCACGATTATTGTGTTTTTAACA (double strand) [Wild-type Dvir H3/H4 promoter], CACAGCACGAAAGTCACTAAAGAACTAATTTCAACGTTTCTGTGTGCCCCTATTTATAGGTAAAACGACAAAAACCCGAGAGAGTACGAACGATATGTTCGTTCGCTTTTCGCTCGTCAAATGAAATGGCCTCTGTTTTTCTCTCTCTCTCTCTCTCTCTTTCACCGTCCACGATTGCTATATAAGTAGGTAGCAAATGCTCTGATCGTTTATTGTGTTTTCAAAC (double strand) [Wild-type Dmel H3/H4 promoter]
